In patent US20110060000A1, “ACRIDINE ANALOGS IN THE TREATMENT OF GLIOMAS” (priority 2009, published 2011):
For part of these data: At least one compound was matched to its structure with a doubt left. Some entries share one result that the patent states for a list of compounds.

Legend:
[1] = test system: GRP78 promoter; experiment: GRP78-luc reporter assay in stably transfected U87-MG clone A5; assay type: cell-based, human
Procedure: The promoter region contains the sequence of the GRP78 promoter from −139 to +7. In this part of the promoter there are three ER stress responsive elements and the TATA box to which is linked in frame the firefly luciferase sequence.
Compounds were plated in half area 96 well plates at the final concentration of 2 μM in 5 μl of media. Cells were added in 45 μl afterwards at the density of 5000/well. Plates were read after 16 h in an Envision high efficiency plate reader. Results are represented as a plate layout in which different shadings indicate the different rows and the number indicate the different lines. As a standard negative and positive controls were located in the outer columns.
A construct coding a large part of the human GRP78 promoter, attached to the reporter gene firefly luciferase was used (see FIG. 16 for a schematic) (Yoshida et al., 1998).
The promoter region contains the sequence of the GRP78 promoter from −139 to +7. […] Although, in transient transfection only a small part of the cell population expresses the transduced gene, a significant induction by THAP and TUN was detected over 24 hours. […] The sensitivity of these cells to the antibiotic has previously been assessed. […] Two pools called P2 and P5 were selected and luciferase expression was assessed. […] Next, the effect of the incubation time on luciferase induction was assessed. […]

[2] = test system: GRP78; experiment: GRP78 protein expression (SDS-PAGE, immunoblot) in C6; assay type: cell-based, rat; settings: background statement without reference
Procedure: Astrocytes and C6 were exposed to graded concentration of THAP as indicated in the captions for 24 hours. Thereafter, protein were extracted and run on a SDS-PAGE and immunoblotted with an anti-GRP78 antibody. Filters were exposed to ECL and films were impressed and developed (Panel B). Films were digitalized using a high resolution scanner and analyzed used imageJ (NIH). Densitometric values were averaged and plotted in the graph (Panel A). Loading conditions were checked using GAPDH housekeeping gene.
Astrocytes and C6 were exposed to TUN for 8 hours at concentrations ranging from 1.25 μg/ml to 10 μg/ml. Proteins were extracted, separated on a SDS-PAGE and immunoblotted. Filters were exposed to ECL and used to impress films (Panel B). Developed films were subsequently digitized with a high resolution scanner and analyzed with the software ImageJ (NIH). Densitometric values were averaged and plotted in the graph (Panel A).
Cells were treated as specified in the graph labeling. It is evident that glioma cells have enhanced GRP78 expression than astrocytes regardless of the challenging agent. N.T.=untreated; D=DMSO; T=TUN; Th=THAP.

Row | Structure (SMILES) | induction of luciferase expression ([1]; clone A5, low THAP and TUN concentrations, 24 h incubation) | induction of luciferase ([1]; inverted quadrant Z plate, half area 96 well plates, manual mode) | GRP78 in C6 glioma cells [2]
1 | C/C=C(/C)C(=O)O[C@H]1C(C)=C2[C@H]([C@@H]1OC(=O)CCCCCCC)[C@@](C)(OC(C)=O)C[C@H](OC(=O)CCC)[C@@]1(O)[C@H]2OC(=O)[C@@]1(C)O [THAP, thapsigargin] | 6-7 fold | 6-7 fold | –
2 | CCCC(CCC)C(=O)O [Valproate] | – | – | do not increase GRP78
